# Assay results published in US20140107344A1, “ZINC SALT OF ISOTHIAZOLONE COMPOUND, METHOD FOR REDUCING IRRITATION CAUSED BY ISOTHIAZOLONE COMPOUND, ANTIBACTERIAL AND ANTIFUNGAL METHOD USING ZINC SALT OF ISOTHIAZOLONE COMPOUND, AND ANTIBACTERIAL AND ANTIFUNGAL COMPOSITION” (Nippon Soda Co., Ltd., priority 2007, published 2014).
# At least one compound was matched to its structure with a doubt left.
# Tested on: Aspergillus niger NBRC6342
# Test: Test for determining minimum concentration for inhibition of growth (agar plate dilution method), Aspergillus niger
# Type: cell-based
# Design: Growth at concentration of active ingredient 50 mg/L / Growth at concentration of active ingredient 100 mg/L: key to the marks not given beside the values
# Details: strain not given in Table 2; for Growth at concentration of active ingredient 50 mg/L / Growth at concentration of active ingredient 100 mg/L / Growth at concentration of active ingredient 150 mg/L / Growth at concentration of active ingredient 200 mg/L / Growth at concentration of active ingredient 250 mg/L / Growth at concentration of active ingredient 500 mg/L / Growth at concentration of active ingredient 750 mg/L: potato dextrose agar
# Source text: (Test for Determining Minimum Concentration for Inhibition of Growth)
# For the test samples, 3 types of samples were used; i.e., the BIT/Zn salt obtained in Example 1 (in the form of a powder containing 79.7% of active ingredients), a BIT material/SC formulation (i.e., Bestcide-NS manufactured by Nippon Soda Co., Ltd. containing 33% of active ingredients), and ZnO (zinc oxide) of 99.0% or greater (manufactured by Wako Pure Chemical Industries, Ltd.). Evaluations were made by conducting an agar plate dilution method using a potato dextrose agar medium. Two fungal strains; i.e., Aspergillus niger NBRC6342 and Cladosporium cladosporioides NBRC6348, were used as microorganisms for the test, and the BIT/Zn salt, BIT and ZnO were used at a concentration of 50 to 1,000 mg/L. The results are shown in Table 2 and Table 3. It should be noted that in Table 3, the results on the analysis of minimum inhibitory concentration (MIC) based on the molecular weights (i.e., MIC values on a molar basis) are shown.
SMILES,Growth at concentration of active ingredient 50 mg/L,Growth at concentration of active ingredient 100 mg/L,Growth at concentration of active ingredient 150 mg/L,Growth at concentration of active ingredient 200 mg/L,Growth at concentration of active ingredient 250 mg/L,Growth at concentration of active ingredient 500 mg/L,Growth at concentration of active ingredient 750 mg/L,"Growth at concentration of active ingredient 1,000 mg/L (potato dextrose agar, 1,000 mg/L)"
"O=c1[nH]sc2ccccc12 [BIT, 1,2-benzoisothiazolin-3-one]",+++,+++,−,−,−,−,−,−
"[O]=[Zn] [ZnO, zinc oxide]",+++,+++,+++,+++,+++,+++,+++,
